# In the supplement of paper PMC8728848:
# The list shows a part of the results.
# Assays:
# Experiment in all cases: glycan array binding signal (z-score within array); higher = stronger binding
# Settings in all cases: glycan notation: IUPAC condensed, linker removed
# [1] = target: Gal(a1-3)GalNAc
# Outline: (§1)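 Glycan array data came from 3228 arrays in the Consortium for Functional Glycomics database, and only arrays with an available protein sequence were kept. Glycan names were put into IUPAC-condensed notation, and columns mapping to the same glycan were averaged. The binding signal is a within-array Z-score, averaged across arrays of one protein sequence run at different concentrations or buffers and across linkers. A negative Z-score can be read as non-binding.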
# [2] = target: Gal(a1-3)[Gal(a1-4)]Gal(b1-4)GlcNAc
# Outline: as §1
# [3] = target: Gal(a1-4)Gal(b1-3)GlcNAc(b1-2)Man(a1-3)[Gal(a1-4)Gal(b1-3)GlcNAc(b1-2)Man(a1-6)]Man(b1-4)GlcNAc(b1-4)GlcNAc
# Outline: as §1
# [4] = target: Gal(a1-4)Gal(b1-4)Glc
# Outline: as §1
# [5] = target: Gal(a1-4)Gal(b1-4)GlcNAc
# Outline: as §1
# [6] = target: Gal(a1-4)Gal(b1-4)GlcNAc(b1-2)Man(a1-3)[Gal(a1-4)Gal(b1-4)GlcNAc(b1-2)Man(a1-6)]Man(b1-4)GlcNAc(b1-4)GlcNAc
# Outline: as §1
# [7] = target: Gal(a1-4)Gal(b1-4)GlcNAc(b1-3)Gal(b1-4)Glc
# Outline: as §1
# [8] = target: Gal(a1-4)GlcNAc
# Outline: as §1
# [9] = target: Gal(a1-6)Glc
# Outline: as §1
# [10] = target: Gal(b1-2)Gal
# Outline: as §1
# [11] = target: Gal(b1-3)Gal
# Outline: as §1
# [12] = target: Gal(b1-3)Gal(b1-4)GlcNAc
# Outline: as §1
# [13] = target: Gal(b1-3)Gal(b1-4)GlcNAc(b1-2)Man(a1-3)[Gal(b1-3)Gal(b1-4)GlcNAc(b1-2)Man(a1-6)]Man(b1-4)GlcNAc(b1-4)GlcNAc
# Outline: as §1
# [14] = target: Gal(b1-3)GalNAc
# Outline: as §1
# [15] = target: Gal(b1-3)GalNAc(a1-3)[Fuc(a1-2)]Gal(b1-4)Glc
# Outline: as §1
# [16] = target: Gal(b1-3)GalNAc(a1-3)[Fuc(a1-2)]Gal(b1-4)GlcNAc
# Outline: as §1
# [17] = target: Gal(b1-3)GalNAc(b1-3)Gal(a1-4)Gal(b1-4)Glc
# Outline: as §1
# [18] = target: Gal(b1-3)GalNAc(b1-4)Gal(b1-4)Glc
# Outline: as §1
# [19] = target: Gal(b1-3)GalNAc(b1-4)[Neu5Ac(a2-3)]Gal(b1-4)Glc
# Outline: as §1
# [20] = target: Gal(b1-3)GlcNAc
# Outline: as §1
# [21] = target: Gal(b1-3)GlcNAc(a1-6)Gal(b1-4)GlcNAc
# Outline: as §1
# [22] = target: Gal(b1-3)GlcNAc(b1-2)Man(a1-3)[Gal(b1-3)GlcNAc(b1-2)Man(a1-6)]Man(b1-4)GlcNAc(b1-4)GlcNAc
# Outline: as §1
# [23] = target: Gal(b1-3)GlcNAc(b1-2)Man(a1-3)[Gal(b1-3)GlcNAc(b1-2)Man(a1-6)]Man(b1-4)GlcNAc(b1-4)[Fuc(a1-6)]GlcNAc
# Outline: as §1
# [24] = target: Gal(b1-3)GlcNAc(b1-3)Gal(b1-3)GlcNAc
# Outline: as §1
# [25] = target: Gal(b1-3)GlcNAc(b1-3)Gal(b1-4)Glc
# Outline: as §1
# [26] = target: Gal(b1-3)GlcNAc(b1-3)Gal(b1-4)GlcNAc
# Outline: as §1
# [27] = target: Gal(b1-3)GlcNAc(b1-3)Gal(b1-4)GlcNAc(b1-6)[Gal(b1-3)GlcNAc(b1-3)]Gal(b1-4)Glc
# Outline: as §1
# [28] = target: Gal(b1-3)GlcNAc(b1-3)Gal(b1-4)[Fuc(a1-3)]GlcNAc(b1-6)[Gal(b1-3)GlcNAc(b1-3)]Gal(b1-4)Glc
# Outline: as §1
# [29] = target: Gal(b1-3)GlcNAc(b1-3)GalNAc
# Outline: as §1
# [30] = target: Gal(b1-3)GlcNAc(b1-6)Gal(b1-4)GlcNAc
# Outline: as §1
# [31] = target: Gal(b1-3)[Fuc(a1-4)]GlcNAc
# Outline: as §1
# [32] = target: Gal(b1-3)[Fuc(a1-4)]GlcNAc(b1-2)Man(a1-3)[Gal(b1-3)[Fuc(a1-4)]GlcNAc(b1-2)Man(a1-6)]Man(b1-4)GlcNAc(b1-4)GlcNAc
# Outline: as §1
# [33] = target: Gal(b1-3)[Fuc(a1-4)]GlcNAc(b1-2)Man(a1-3)[Gal(b1-3)[Fuc(a1-4)]GlcNAc(b1-2)Man(a1-6)]Man(b1-4)GlcNAc(b1-4)[Fuc(a1-6)]GlcNAc
# Outline: as §1
# [34] = target: Gal(b1-3)[Fuc(a1-4)]GlcNAc(b1-3)Gal(b1-3)[Fuc(a1-4)]GlcNAc
# Outline: as §1
# [35] = target: Gal(b1-3)[Fuc(a1-4)]GlcNAc(b1-3)Gal(b1-4)GlcNAc
# Outline: as §1
# [36] = target: Gal(b1-3)[Fuc(a1-4)]GlcNAc(b1-3)Gal(b1-4)[Fuc(a1-3)]GlcNAc
# Outline: as §1
# [37] = target: Gal(b1-3)[GlcNAc(b1-6)]GalNAc
# Outline: as §1
binder,measurement,setting,value
"SRS6 (Toxoplasma gondii), Q9NH12 (protein) MARTGSMQQRRGGFQTTARMLMAVCVSGVLLLSSGPSSANKLTEGQQNQNSGPGAATQEGPTIEGAVAKCVLKTTAAENGSSRAKNTTGLTLSKENLVVSLQCSGEKNAIVPKDQKKVCSAAPNAKVADCKGADTDKQVTLKSLLGTSGDIQWEKTIVSTDNKGEVMTLKIKESELPLFDKAFFVGCEEDKAQTRTSQATECKVNVSVKARPSTVGENNVVTCAYGKDSNPRPLEVEMSADNDTLTIDCGTDGSLKPTKYTEEFCVTDNSQLESCTTKKFSEILPTFLPSWWVSDSQNGSAKLTIPESGFPEEQQQFRLGCVPKKTTQSPQANPSVKTEKEEGAQNTDASTSNCSVIVTVKASNFSSLASSIAPTAAVAGGAAALTGFLVGSF",glycan array binding signal (z-score),[1],-0.288
same,glycan array binding signal (z-score),[2],-0.103
same,glycan array binding signal (z-score),[3],0.315
same,glycan array binding signal (z-score),[4],-0.732
same,glycan array binding signal (z-score),[5],-0.345
same,glycan array binding signal (z-score),[6],-0.336
same,glycan array binding signal (z-score),[7],0.399
same,glycan array binding signal (z-score),[8],0.185
same,glycan array binding signal (z-score),[9],-0.184
same,glycan array binding signal (z-score),[10],0.732
same,glycan array binding signal (z-score),[11],0.202
same,glycan array binding signal (z-score),[12],-0.549
same,glycan array binding signal (z-score),[13],-0.557
same,glycan array binding signal (z-score),[14],-0.563
same,glycan array binding signal (z-score),[15],-0.134
same,glycan array binding signal (z-score),[16],0.286
same,glycan array binding signal (z-score),[17],-0.397
same,glycan array binding signal (z-score),[18],-1.59
same,glycan array binding signal (z-score),[19],0.417
same,glycan array binding signal (z-score),[20],-0.316
same,glycan array binding signal (z-score),[21],-0.152
same,glycan array binding signal (z-score),[22],0.296
same,glycan array binding signal (z-score),[23],1.28
same,glycan array binding signal (z-score),[24],-0.195
same,glycan array binding signal (z-score),[25],-0.592
same,glycan array binding signal (z-score),[26],-0.083
same,glycan array binding signal (z-score),[27],-0.007
same,glycan array binding signal (z-score),[28],-0.71
same,glycan array binding signal (z-score),[29],1.44
same,glycan array binding signal (z-score),[30],-0.783
same,glycan array binding signal (z-score),[31],-0.34
same,glycan array binding signal (z-score),[32],0.947
same,glycan array binding signal (z-score),[33],0.922
same,glycan array binding signal (z-score),[34],-0.067
same,glycan array binding signal (z-score),[35],0.535
same,glycan array binding signal (z-score),[36],0.447
same,glycan array binding signal (z-score),[37],-0.607

# A run of entries from further up, as a working copy:
binder,measurement,setting,value
"SRS6 (Toxoplasma gondii), Q9NH12 (protein) MARTGSMQQRRGGFQTTARMLMAVCVSGVLLLSSGPSSANKLTEGQQNQNSGPGAATQEGPTIEGAVAKCVLKTTAAENGSSRAKNTTGLTLSKENLVVSLQCSGEKNAIVPKDQKKVCSAAPNAKVADCKGADTDKQVTLKSLLGTSGDIQWEKTIVSTDNKGEVMTLKIKESELPLFDKAFFVGCEEDKAQTRTSQATECKVNVSVKARPSTVGENNVVTCAYGKDSNPRPLEVEMSADNDTLTIDCGTDGSLKPTKYTEEFCVTDNSQLESCTTKKFSEILPTFLPSWWVSDSQNGSAKLTIPESGFPEEQQQFRLGCVPKKTTQSPQANPSVKTEKEEGAQNTDASTSNCSVIVTVKASNFSSLASSIAPTAAVAGGAAALTGFLVGSF",glycan array binding signal (z-score),[24],-0.195
same,glycan array binding signal (z-score),[25],-0.592
same,glycan array binding signal (z-score),[26],-0.083
